Amino acid sequences for entries named in this document (tags omitted). A change or cut given only in a name is not applied to a line headed by its entry. Residues count along the entry.
UniProt P29350: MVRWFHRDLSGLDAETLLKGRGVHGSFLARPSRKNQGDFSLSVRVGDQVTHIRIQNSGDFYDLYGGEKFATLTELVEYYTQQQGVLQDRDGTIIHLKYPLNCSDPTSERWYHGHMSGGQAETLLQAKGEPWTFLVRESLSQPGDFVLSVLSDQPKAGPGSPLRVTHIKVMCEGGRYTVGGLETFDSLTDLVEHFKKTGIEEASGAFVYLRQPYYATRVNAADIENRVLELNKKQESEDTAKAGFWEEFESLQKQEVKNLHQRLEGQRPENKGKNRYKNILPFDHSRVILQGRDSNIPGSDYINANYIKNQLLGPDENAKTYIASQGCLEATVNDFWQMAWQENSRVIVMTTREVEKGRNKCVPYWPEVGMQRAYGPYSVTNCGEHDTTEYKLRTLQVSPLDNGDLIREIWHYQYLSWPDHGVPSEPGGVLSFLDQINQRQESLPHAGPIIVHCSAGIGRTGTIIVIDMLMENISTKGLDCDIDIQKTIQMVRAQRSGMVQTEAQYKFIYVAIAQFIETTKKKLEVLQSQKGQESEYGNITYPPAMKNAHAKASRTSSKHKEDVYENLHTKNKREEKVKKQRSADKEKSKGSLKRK
UniProt P18031, 1-321: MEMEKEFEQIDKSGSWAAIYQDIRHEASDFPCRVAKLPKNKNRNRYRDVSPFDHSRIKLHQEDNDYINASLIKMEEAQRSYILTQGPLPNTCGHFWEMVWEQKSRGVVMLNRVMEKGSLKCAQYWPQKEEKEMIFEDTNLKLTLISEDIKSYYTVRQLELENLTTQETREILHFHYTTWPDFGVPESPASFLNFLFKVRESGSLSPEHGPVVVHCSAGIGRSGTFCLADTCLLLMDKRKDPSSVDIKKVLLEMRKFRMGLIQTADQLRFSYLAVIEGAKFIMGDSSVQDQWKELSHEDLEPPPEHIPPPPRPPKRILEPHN

According to patent US20090275637:

Key:
Test in all cases: inhibition of the protein
LAR = conditions: no inhibition up to 400 nM; 20 mM NaCl, 5 uM DiFMUP; purified recombinant protein; protein details: GST; label: 32P (binding assay); variant of C13
SHP-1 = SHP-1 (UniProt P29350); conditions: no inhibition up to 400 nM; 20 mM NaCl, 5 uM DiFMUP; purified recombinant protein; protein details: GST; label: 32P (binding assay); variant of C13
PTPN13 = conditions: no inhibition up to 400 nM; 20 mM NaCl, 5 uM DiFMUP; purified recombinant protein; protein details: GST; label: 32P (binding assay); variant of C13
MKPX = biological target: T1, MKPX (UniProt Q9NRW4); conditions: no inhibition up to 400 nM; 20 mM NaCl, 5 uM DiFMUP; purified recombinant protein; protein details: GST; label: 32P (binding assay); variant of C13
T1 sequence (looked up, limits assumed): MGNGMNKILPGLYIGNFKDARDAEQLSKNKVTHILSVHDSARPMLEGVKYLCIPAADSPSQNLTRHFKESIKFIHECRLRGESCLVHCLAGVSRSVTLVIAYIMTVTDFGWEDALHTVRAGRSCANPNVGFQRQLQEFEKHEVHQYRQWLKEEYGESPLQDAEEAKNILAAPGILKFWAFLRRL

PEST (PTP-PEST) = conditions: no inhibition up to 400 nM; 20 mM NaCl, 5 uM DiFMUP; purified recombinant protein; protein details: GST; label: 32P (binding assay); variant of C13
PTP Sigma = conditions: no inhibition up to 400 nM; 20 mM NaCl, 5 uM DiFMUP; purified recombinant protein; protein details: GST; label: 32P (binding assay); variant of C13
PTPN7 = biological target: T2, PTPN7 (UniProt P35236); conditions: no inhibition up to 400 nM; 20 mM NaCl, 5 uM DiFMUP; purified recombinant protein; protein details: GST; label: 32P (binding assay); variant of C13
T2 sequence (looked up, limits assumed): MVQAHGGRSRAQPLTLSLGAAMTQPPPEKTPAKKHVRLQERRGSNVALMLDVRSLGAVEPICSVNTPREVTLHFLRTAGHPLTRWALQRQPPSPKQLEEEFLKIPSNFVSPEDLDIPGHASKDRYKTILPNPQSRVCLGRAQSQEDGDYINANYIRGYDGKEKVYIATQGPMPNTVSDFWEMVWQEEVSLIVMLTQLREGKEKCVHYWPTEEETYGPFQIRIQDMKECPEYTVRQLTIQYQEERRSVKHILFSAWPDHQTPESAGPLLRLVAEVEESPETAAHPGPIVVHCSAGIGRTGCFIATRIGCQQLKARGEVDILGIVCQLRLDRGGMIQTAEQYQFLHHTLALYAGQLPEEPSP

PTP1B (Homo sapiens) = PTP1B (Homo sapiens) (UniProt P18031); conditions: no inhibition at 40 and 200 nM; 125 mM NaCl; purified recombinant protein; protein details: N-terminal His6, R&D Systems 1366-PT-050; variant of C13

With “GGGAAUUCUGUGAUCAAUUUGGCAAUCCGCCACACGAGUUC [C13M21]” the “functional effect of the aptamer” value (LAR) was “not active”, the “functional effect of the aptamer” value (SHP-1) was “not active” and the “functional effect of the aptamer” value (PTPN13) was “not active”. The “functional effect of the aptamer” value (MKPX) was “not active”, the “functional effect of the aptamer” value (PEST (PTP-PEST)) was “not active” and the “functional effect of the aptamer” value (PTP Sigma) was “not active”. For the same sequence, the “functional effect of the aptamer” value (PTPN7) was “not active”.

For GGGAUCAAUUUGGCAAUCCGCCAC [C13M30], the “functional effect of the aptamer” value (PTP1B (Homo sapiens)) was “not active”.

In the case of GGGCAAUCCGCC [C13M39], the “functional effect of the aptamer” value (PTP1B (Homo sapiens)) is reported as “not active”.

For GGGUGGCAAUCCGCCA [C13M38], the “functional effect of the aptamer” value (PTP1B (Homo sapiens)) was “not active”.

With GGGUGUGAUCAAUUUGGCAAUCCGCCACAC [C13M27] the “functional effect of the aptamer” value (PTP1B (Homo sapiens)) was “not active”.

A negative result means that nothing was seen under these conditions. For some assays here: Tags and fusion partners may be left off the protein sequences shown. For some assays here: Construct, isoform or probe ends are uncertain for at least one entry.
